Library screening results

A: 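Whole-cell assay for inhibitors of Mycobacterium tuberculosis growth, labelled Cornell in the record; the read-out is not stated. The concentration is filed as 10 mM, unlikely as a test dose, so the dose is not known. Higher means stronger inhibition (inferred from two other growth screens of the library). Size under these conditions: about 53,000 compounds, about 900 of them at 50% or above in at least one test.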
B: 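Assay on Mycobacterium tuberculosis, filed only as a heat shock assay from Cornell; the read-out is not stated. The concentration is filed as 10 mM, unlikely as a test dose, so the dose is not known. Higher reads as stronger inhibition (inferred: compounds with an IC50 in retests scored well above the rest). About 69,000 compounds were tested under these conditions; 1.4% (about 930) showed 50% or more at least once.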

Results are given as percent effect. The record does not define 0% and 100%; most values in the screen are far below 50% and negative numbers occur (in some assays of this library far below -100). Compounds were drawn at random from those tested, without regard to their results. A dash means the value is not listed here; it may have been measured.

| Compound | A | B |
|---|---|---|
| `O=C(O)C(F)(F)F.[H][C@@]12CCN(S(=O)(=O)N(C)C)C[C@]1(COc1cccnc1)CCO2` | 10.77 | -17.65 |
| `CC(CNS(N)(=O)=O)Oc1cccc(Cl)c1` (stereo not shown) | - | -31.66 |
| `c1ccc(COC2CCN(c3cncc(-n4cccn4)n3)CC2)cc1` | 60.34 | 53.35 |
| `N#Cc1ccc(CN2C[C@@H](F)[C@@H](OCc3nc4cnccc4[nH]3)C2)cc1` | -5.015 | -9.128 |
| `CC(O)CNCc1ccccc1C(F)(F)F.Cl` (stereo not shown) | - | -24.54 |
| `COc1cccc(CN2CCCC2c2cncc(Nc3nncs3)n2)c1` (stereo not shown) | -21.88 | 104.6 |
| `O=C(c1ccccc1)N1CC2(CCNC2)OCc2ccccc21` (stereo not shown) | - | -14.06 |
| `CC(=O)N(C)C1CCN(c2ncc3c(n2)CCN3c2ccccc2)C1` (stereo not shown) | -5.573 | 8.426 |
| `CCN(C)c1ncnc2c1CCN(C(=O)c1cnccn1)CC2.O=C(O)C(F)(F)F` | -27.38 | -19.16 |
| `FC(F)(F)c1ccc(CN2CCN(Cc3cscn3)CC2)cc1` | -48.74 | 18.93 |
| `Cc1cc(C(=O)N2CCCC(C(=O)c3nccn3C)C2)c(=O)[nH]c1C` (stereo not shown) | - | -33.99 |
| `Cc1cc(NCCn2cccn2)n2ncnc2n1` | -9.875 | -1.052 |
| `Cc1nn(C)c(Oc2cccc(F)c2)c1NC(=O)C1CCCO1` (stereo not shown) | 12.24 | -1.258 |
| `Cc1ccc(-c2nc(CN(Cc3cccs3)CC3CCCO3)no2)cc1` (stereo not shown) | -11.64 | -15.23 |
| `CCc1cnc(CN(C)C2CCN(CCS(C)(=O)=O)C2)o1` (stereo not shown) | 2.424 | 20.62 |
| `Cc1cccc(N(CC(=O)N2CCCCC2)Cc2nc(=O)[nH][nH]2)c1` | 36.81 | 3.64 |
| `CC(C)CCN1C2(CCN(C(=O)CN(C)C)C2)c2ccccc2S1(=O)=O.O=C(O)C(F)(F)F` (stereo not shown) | 41.18 | -18.9 |
| `CN(C)CCn1c2c(ccc1=O)CCN(C(=O)c1ccoc1)CC2.O=C(O)C(F)(F)F` | - | -0.5804 |
| `Cc1ccsc1CN(C)c1nc2c(cnn2C(C)(C)C)c(=O)[nH]1` | - | -4.723 |
| `CCS(=O)(=O)N1CCC(c2nccn2Cc2ccncc2)CC1` | 10.37 | -3.536 |
| `CC(O)CNC(=O)NCCCN1CCN(c2ncccn2)CC1` (stereo not shown) | 11.75 | 13.92 |
| `COc1ccc(F)c(-c2ccnc(N)c2)c1` | 17.24 | -18.31 |
| `COc1cccc(COCC(=O)NC(C(N)=O)c2ccccc2)c1` (stereo not shown) | -12.37 | -6.792 |
| `COCCN1CCN(Cc2c(C3CCNCC3)[nH]c3ncccc23)CC1.Cl` | 21.81 | -8.017 |
| `CNc1ncc(CN(C)c2nc(C)c3ccc(S(C)(=O)=O)cc3n2)cn1` | 10.2 | 24.64 |
| `Cc1nc(C)n(CC2CCCN2Cc2nc3ccccc3n2C)n1` (stereo not shown) | - | -5.876 |
| `CCn1cc(NC(=O)NCCN2CCc3ccccc3C2)cn1` | - | -13.56 |
| `Cc1cc(F)c(C(C(=O)O)N2CCN(Cc3ccccn3)CC2)cc1Cl` (stereo not shown) | - | 18.01 |
| `Cc1nc(C2CCCN2C(=O)COc2ccccc2)ncc1C(N)=O` (stereo not shown) | -31.36 | -11.03 |
| `COc1cccc(C(=O)N2CCc3ncnc(C)c3CC2)c1` | 39.21 | -10.3 |
| `[H][C@@]12CN(S(C)(=O)=O)C[C@]1([H])OCC(=O)N2CC1CCC1` | - | 2.673 |
| `O=C(NC1(c2nnn(CC3CCCO3)n2)CCCC1)c1ccccc1` (stereo not shown) | -7.922 | -9.442 |
| `Cc1cnc(Nc2cccc(C3CCCN3C(=O)CO)n2)s1` (stereo not shown) | -1.219 | -6.272 |
| `CCN(Cc1ccccc1)C(=O)CCN1C[C@@H](C(=O)O)[C@H](C2CC2)C1` | - | -15.39 |
| `Cc1ccccc1[C@@H]1CN(Cc2ccc(C(F)(F)F)nc2)C[C@H]1C(=O)O` | 16.83 | -2.528 |
| `Cc1cc2c(=O)n3c(nc2s1)CCN(Cc1ccncc1)CC3` | 6.289 | 3.544 |
| `Cc1nc(C)n(CC2CCCN(c3ccc(C#N)cn3)C2)n1` (stereo not shown) | 5.415 | -21.86 |
| `COc1ccc(-c2csc3c2c(N)nc(=O)n3CC(N)=O)cc1` | 15.34 | 1.949 |
| `COc1ccc2nc(C)c(C(=O)NCCN3CCS(=O)(=O)CC3)cc2c1` | - | 0.03382 |
| `O=C(NCCc1c[nH]cn1)c1ccccc1C1CCNC1` (stereo not shown) | - | -26.64 |
| `c1cc(CCn2ccc(NC3CCSCC3)n2)ccn1` | 2.643 | -6.583 |
| `COc1cc(C)c(C2CC(=O)NCc3nc4sccn4c32)cc1C` (stereo not shown) | 1.051 | -26.91 |
| `CN(CC(=O)NCC(=O)Nc1ccc(F)cc1)Cc1cccs1` | 4.666 | -10.6 |

5 of the entries, repeated:

{"compound": "CC(O)CNC(=O)NCCCN1CCN(c2ncccn2)CC1", "stereo": "stereo not shown", "A": 11.75, "B": 13.92}
{"compound": "c1cc(CCn2ccc(NC3CCSCC3)n2)ccn1", "A": 2.643, "B": -6.583}
{"compound": "COc1cccc(COCC(=O)NC(C(N)=O)c2ccccc2)c1", "stereo": "stereo not shown", "A": -12.37, "B": -6.792}
{"compound": "COc1ccc(-c2csc3c2c(N)nc(=O)n3CC(N)=O)cc1", "A": 15.34, "B": 1.949}
{"compound": "CC(CNS(N)(=O)=O)Oc1cccc(Cl)c1", "stereo": "stereo not shown", "B": -31.66}

From ChEMBL document CHEMBL3988442, “University of Dundee, Small-Polar-MMV Screening Library” (2021).